The other results are listed elsewhere or left out.
The targets below were run with COC(=O)N[C@@H](C)CNc1nccc(-c2cn(C(C)C)nc2-c2cc(Cl)cc(NS(C)(=O)=O)c2F)n1 [encorafenib] (assay: log2 fold change, soluble protein after heating vs DMSO (PISA); higher = thermal stabilisation; K562 lysate, 10 uM; active = over 0.2 and 3.5 SD of the protein, either way, in both replicates (recomputed)).
Procedure, shortened: (§1)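 Soluble protein was defined as the supernatant remaining after 21,000xg for 90 min, following pooling of heated aliquots and adjustment to 0.5% NP-40 at 4°C. Before that, crude K562 extract at 1 mg/mL protein in PBS pH 7.4 with 1 mM MgCl2 was treated with 10 μM compound for 30 min and heated for 3 min across 48°C-58°C. Quantification used TMTpro 16plex LC-MS/MS with channel sums equalised, and values are log-two fold changes in thermal stability relative to solvent controls from duplicates.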

Sequences of proteins named here, by UniProt entry; tags and fusion partners are left off. A change or cut given only in a name is not applied to a line headed by its entry.
UniProt Q92484: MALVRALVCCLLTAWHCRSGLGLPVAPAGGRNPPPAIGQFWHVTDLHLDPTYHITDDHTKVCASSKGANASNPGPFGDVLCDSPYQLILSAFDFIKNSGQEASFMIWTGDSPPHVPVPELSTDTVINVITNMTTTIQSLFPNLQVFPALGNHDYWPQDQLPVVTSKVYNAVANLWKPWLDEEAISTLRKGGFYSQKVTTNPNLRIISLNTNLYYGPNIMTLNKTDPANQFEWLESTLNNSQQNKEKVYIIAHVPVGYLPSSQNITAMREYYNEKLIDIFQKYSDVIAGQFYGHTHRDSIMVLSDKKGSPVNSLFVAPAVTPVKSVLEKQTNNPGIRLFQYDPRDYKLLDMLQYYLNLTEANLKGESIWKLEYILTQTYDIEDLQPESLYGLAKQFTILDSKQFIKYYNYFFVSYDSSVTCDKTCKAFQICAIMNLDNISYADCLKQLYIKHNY
UniProt P08294: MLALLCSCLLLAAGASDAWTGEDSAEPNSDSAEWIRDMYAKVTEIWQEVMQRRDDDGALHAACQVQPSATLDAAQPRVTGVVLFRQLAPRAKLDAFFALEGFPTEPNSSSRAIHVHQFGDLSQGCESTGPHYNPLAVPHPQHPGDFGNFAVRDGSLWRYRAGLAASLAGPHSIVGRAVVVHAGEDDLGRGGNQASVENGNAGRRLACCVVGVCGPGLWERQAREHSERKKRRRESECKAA
UniProt O60749: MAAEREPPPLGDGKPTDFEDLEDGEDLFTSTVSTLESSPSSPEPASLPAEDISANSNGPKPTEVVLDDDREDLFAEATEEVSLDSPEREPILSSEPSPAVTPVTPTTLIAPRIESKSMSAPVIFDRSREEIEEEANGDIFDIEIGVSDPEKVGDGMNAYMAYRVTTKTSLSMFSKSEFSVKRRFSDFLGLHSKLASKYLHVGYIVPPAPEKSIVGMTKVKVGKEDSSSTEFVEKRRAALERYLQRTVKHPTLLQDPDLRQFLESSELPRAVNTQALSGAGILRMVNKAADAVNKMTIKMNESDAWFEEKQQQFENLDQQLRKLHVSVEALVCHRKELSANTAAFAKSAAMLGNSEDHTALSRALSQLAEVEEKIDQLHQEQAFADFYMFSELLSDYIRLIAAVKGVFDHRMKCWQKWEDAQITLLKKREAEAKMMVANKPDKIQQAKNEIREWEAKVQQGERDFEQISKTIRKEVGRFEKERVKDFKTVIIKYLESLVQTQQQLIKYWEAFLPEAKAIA
UniProt Q92966: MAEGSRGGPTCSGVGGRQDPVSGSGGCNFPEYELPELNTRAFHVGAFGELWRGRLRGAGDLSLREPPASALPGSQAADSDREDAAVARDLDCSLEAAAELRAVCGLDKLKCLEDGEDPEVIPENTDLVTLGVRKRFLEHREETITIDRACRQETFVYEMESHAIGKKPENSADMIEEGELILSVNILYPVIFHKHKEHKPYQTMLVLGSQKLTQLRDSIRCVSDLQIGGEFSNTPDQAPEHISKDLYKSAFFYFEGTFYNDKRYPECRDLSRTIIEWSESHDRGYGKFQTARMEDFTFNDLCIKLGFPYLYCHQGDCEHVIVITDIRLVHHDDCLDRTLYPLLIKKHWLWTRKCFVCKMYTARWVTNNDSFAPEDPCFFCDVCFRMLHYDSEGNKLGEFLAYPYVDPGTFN
UniProt Q9H7B4: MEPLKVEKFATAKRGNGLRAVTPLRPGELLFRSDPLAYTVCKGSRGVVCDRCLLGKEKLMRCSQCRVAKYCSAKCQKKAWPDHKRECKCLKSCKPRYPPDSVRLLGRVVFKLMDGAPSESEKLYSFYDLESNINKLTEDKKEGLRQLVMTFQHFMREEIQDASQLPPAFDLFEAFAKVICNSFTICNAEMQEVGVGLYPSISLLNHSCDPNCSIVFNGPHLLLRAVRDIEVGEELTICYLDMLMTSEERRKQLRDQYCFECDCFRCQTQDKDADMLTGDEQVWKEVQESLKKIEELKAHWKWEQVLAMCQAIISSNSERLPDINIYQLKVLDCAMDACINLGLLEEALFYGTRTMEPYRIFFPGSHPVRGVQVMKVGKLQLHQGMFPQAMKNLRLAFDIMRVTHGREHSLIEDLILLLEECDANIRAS
UniProt Q8NDV3: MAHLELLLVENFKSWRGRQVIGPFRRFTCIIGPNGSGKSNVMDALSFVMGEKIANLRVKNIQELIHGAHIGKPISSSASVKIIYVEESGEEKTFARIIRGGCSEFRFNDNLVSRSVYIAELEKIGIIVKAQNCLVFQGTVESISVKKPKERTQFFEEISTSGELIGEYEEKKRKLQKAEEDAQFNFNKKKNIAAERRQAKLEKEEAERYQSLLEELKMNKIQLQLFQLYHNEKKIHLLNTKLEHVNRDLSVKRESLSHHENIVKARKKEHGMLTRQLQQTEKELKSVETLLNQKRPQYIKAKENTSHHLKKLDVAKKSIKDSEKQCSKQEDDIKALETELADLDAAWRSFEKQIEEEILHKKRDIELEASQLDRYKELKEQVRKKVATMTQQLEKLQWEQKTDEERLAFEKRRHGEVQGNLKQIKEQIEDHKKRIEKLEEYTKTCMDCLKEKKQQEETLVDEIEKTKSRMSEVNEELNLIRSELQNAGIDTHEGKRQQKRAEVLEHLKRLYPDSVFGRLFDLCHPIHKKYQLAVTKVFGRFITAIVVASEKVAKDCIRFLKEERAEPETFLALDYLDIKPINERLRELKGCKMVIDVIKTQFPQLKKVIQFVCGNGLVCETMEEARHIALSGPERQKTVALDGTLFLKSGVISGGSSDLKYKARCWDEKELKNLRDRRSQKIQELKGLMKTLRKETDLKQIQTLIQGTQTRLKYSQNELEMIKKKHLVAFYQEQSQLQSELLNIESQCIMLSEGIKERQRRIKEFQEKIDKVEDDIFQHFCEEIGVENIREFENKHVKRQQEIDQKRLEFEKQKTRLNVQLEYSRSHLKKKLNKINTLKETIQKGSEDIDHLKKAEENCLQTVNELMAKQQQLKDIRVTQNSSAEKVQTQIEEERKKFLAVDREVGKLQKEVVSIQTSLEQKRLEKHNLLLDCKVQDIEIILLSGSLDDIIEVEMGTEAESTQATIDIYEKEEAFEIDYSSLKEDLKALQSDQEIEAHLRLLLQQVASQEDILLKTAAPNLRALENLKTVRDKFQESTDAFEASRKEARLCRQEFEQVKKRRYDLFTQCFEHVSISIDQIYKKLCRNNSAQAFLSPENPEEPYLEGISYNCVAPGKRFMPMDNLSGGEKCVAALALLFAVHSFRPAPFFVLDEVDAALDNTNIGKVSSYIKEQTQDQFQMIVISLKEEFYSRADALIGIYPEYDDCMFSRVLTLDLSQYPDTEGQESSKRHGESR
UniProt Q02086: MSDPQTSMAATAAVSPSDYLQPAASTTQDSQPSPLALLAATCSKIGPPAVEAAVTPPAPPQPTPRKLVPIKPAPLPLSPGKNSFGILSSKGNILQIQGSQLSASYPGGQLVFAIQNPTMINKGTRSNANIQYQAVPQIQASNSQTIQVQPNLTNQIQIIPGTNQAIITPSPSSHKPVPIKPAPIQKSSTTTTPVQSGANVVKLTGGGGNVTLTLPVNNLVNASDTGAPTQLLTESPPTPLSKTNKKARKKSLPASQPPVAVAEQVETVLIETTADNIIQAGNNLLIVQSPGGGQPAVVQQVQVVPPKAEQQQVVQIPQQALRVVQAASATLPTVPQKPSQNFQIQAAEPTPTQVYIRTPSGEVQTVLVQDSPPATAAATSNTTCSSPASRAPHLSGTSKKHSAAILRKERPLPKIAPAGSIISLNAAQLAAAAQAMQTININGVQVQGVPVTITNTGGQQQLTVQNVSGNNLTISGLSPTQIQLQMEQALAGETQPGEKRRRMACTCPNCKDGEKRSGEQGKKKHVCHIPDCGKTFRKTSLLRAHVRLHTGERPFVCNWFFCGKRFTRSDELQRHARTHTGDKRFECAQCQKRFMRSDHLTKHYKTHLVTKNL
UniProt P58511: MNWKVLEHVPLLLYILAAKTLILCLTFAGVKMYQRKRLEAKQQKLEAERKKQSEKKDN
UniProt Q9Y5W7: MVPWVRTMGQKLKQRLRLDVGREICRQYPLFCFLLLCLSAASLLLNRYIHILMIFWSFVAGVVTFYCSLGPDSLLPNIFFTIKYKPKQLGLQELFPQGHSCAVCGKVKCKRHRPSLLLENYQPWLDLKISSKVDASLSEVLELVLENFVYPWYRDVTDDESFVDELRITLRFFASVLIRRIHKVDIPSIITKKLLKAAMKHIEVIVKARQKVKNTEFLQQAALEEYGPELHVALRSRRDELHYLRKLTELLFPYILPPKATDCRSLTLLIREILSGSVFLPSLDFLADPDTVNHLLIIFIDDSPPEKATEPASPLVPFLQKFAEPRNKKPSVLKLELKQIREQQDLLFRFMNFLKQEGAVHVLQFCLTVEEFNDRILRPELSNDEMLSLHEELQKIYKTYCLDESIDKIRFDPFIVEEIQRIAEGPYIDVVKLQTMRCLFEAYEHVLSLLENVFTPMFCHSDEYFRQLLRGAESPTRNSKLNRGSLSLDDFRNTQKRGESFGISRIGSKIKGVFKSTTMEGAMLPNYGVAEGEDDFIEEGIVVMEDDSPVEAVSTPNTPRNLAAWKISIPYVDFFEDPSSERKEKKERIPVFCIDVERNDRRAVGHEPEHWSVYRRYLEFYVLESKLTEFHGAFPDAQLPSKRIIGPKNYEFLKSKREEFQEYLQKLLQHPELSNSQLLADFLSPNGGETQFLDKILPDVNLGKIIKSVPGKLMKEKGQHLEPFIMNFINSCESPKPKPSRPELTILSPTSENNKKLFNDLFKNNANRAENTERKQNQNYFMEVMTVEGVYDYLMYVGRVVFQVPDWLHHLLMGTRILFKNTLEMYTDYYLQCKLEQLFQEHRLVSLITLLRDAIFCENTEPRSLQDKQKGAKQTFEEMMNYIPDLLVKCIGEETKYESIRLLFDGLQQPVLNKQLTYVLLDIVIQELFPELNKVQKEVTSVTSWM
UniProt O75971: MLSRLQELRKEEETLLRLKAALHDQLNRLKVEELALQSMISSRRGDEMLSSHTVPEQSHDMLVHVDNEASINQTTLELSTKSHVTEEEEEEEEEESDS
UniProt Q16560: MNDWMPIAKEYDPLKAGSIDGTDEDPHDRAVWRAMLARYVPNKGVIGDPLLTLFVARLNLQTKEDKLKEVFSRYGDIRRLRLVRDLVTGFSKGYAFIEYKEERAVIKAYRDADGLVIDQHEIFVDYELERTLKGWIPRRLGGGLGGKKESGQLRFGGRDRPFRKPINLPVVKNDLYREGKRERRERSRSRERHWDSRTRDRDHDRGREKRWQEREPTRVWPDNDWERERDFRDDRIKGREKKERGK
UniProt Q8TAQ2, whole entry, looked up: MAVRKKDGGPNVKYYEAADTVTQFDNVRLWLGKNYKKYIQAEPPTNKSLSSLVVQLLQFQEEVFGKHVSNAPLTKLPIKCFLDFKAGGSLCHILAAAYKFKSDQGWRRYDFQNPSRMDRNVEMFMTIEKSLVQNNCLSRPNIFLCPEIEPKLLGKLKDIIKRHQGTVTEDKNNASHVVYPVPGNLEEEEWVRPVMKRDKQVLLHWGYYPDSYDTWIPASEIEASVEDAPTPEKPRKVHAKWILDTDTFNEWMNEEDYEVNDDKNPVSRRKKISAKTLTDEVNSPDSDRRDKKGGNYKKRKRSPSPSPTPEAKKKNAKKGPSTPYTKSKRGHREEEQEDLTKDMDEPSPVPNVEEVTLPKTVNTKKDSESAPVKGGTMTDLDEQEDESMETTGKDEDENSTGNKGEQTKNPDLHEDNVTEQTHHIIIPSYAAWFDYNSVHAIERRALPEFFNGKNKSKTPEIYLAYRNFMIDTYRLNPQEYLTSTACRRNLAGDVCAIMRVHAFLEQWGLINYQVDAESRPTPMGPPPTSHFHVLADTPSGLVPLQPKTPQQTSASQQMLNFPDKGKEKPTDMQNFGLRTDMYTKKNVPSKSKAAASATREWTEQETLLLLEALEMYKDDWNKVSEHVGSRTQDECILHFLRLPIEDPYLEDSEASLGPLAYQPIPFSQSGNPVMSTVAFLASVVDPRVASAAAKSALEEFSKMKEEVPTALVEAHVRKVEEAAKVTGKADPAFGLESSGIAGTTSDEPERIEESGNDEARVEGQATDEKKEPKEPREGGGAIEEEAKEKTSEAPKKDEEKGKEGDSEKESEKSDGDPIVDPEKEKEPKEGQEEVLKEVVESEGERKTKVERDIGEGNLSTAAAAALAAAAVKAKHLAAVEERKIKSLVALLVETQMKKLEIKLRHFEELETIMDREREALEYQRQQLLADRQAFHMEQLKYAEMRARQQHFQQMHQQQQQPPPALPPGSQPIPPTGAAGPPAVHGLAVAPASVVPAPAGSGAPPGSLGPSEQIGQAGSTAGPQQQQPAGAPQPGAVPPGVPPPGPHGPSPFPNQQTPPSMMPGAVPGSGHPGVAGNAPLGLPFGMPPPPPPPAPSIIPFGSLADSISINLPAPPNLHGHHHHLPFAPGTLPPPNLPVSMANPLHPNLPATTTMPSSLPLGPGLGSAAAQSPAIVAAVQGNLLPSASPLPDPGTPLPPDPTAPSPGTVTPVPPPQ
UniProt Q9BV90: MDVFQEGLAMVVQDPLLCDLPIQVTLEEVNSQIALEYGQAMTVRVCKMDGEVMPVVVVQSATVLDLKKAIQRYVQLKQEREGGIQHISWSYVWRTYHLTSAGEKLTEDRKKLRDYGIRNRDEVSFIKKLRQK

log2 fold change, inactive:
SMPDL3A (UniProt Q92484) 0.005, SOD3 (UniProt P08294) 0.207, SNX25 (UniProt Q9H3E2) -0.007, SNX2 isoform 2 (UniProt O60749) -0.117, SNAPC3 (UniProt Q92966) -0.136, SMYD3 (UniProt Q9H7B4) 0.022, SMC1B isoform 3 (UniProt Q8NDV3) 0.039, SNAPC4 (UniProt Q5SXM2) 0.036, SNRPD2 (UniProt K7EJB5) -0.069, SP2 (UniProt Q02086) 0.063, SMIM11A (UniProt P58511) 0.357, SNX14 (UniProt Q9Y5W7) -0.048

Each target was assayed with COC(=O)[C@H](CCSC)NC(=O)C1=C(C=C(C=C1)NC[C@H](CS)N)C2=CC=CC=C2 in the same assay as above.
Procedure, shortened: as §1

log2 fold change, inactive:
SMPDL3A (UniProt Q92484) 0.069, SOD3 (UniProt P08294) -0.057, SNX25 (UniProt Q9H3E2) -0.044, SNX2 isoform 2 (UniProt O60749) 0.189, SNAPC3 (UniProt Q92966) 0.123, SMYD3 (UniProt Q9H7B4) 0.071, SMC1B isoform 3 (UniProt Q8NDV3) -0.03, SNAPC4 (UniProt Q5SXM2) 0.04, SNRPD2 (UniProt K7EJB5) 0.047, SP2 (UniProt Q02086) -0.073, SMIM11A (UniProt P58511) 0.004, SNX14 (UniProt Q9Y5W7) 0.03

The targets below were run with COc1cc(Nc2ncc3c(n2)-c2ccc(Cl)cc2C(c2c(F)cccc2OC)=NC3)ccc1C(=O)O [alisertib] in the same assay as above.
Procedure, shortened: as §1

log2 fold change, inactive:
SMPD1 (UniProt P17405) -0.03, SNX33 (UniProt Q8WV41) -0.01, SNX2 isoform 2 (UniProt O60749) -0.09, SNIP1 (UniProt Q8TAD8) -0.024, SNAPC3 (UniProt Q92966) -0.004, SMYD3 (UniProt Q9H7B4) -0.044, SNAPC5 (UniProt O75971) -0.035, SON isoform 6 (UniProt P18583) -0.108, SNAPC1 (UniProt Q16533) 0.113, SMC1B isoform 3 (UniProt Q8NDV3) 0.027, SNAPC4 (UniProt Q5SXM2) 0.09, SNRPD2 (UniProt K7EJB5) 0.103, SNRNP35 isoform 2 (UniProt Q16560) -0.04, SP2 (UniProt Q02086) -0.14, SMARCC2 isoform 3 (UniProt Q8TAQ2) -0.078, SNX14 (UniProt Q9Y5W7) -0.028, SNRNP25 (UniProt Q9BV90) -0.078

Each target was assayed with COc1cc2nc(-c3cc(F)ccc3O)nc(N[C@@H]3CNC[C@H]3C(C)(C)O)c2cc1OC in the same assay as above.
Procedure, shortened: as §1

log2 fold change, inactive:
SMPDL3A (UniProt Q92484) -0.251, SOD3 (UniProt P08294) -0.109, SMIM29 (UniProt Q86T20) 0.071, SNX2 isoform 2 (UniProt O60749) 0.09, SMYD3 (UniProt Q9H7B4) 0, SMC1B isoform 3 (UniProt Q8NDV3) -0.03, SOX11 (UniProt P35716) 0.124, SMOX isoform 6 (UniProt Q9NWM0) -0.079, SPAG1 (UniProt Q07617) -0.03, SNRPD2 (UniProt K7EJB5) 0.025, SNRPA1 (UniProt H0YMA0) 0.027, SMIM11A (UniProt P58511) -0.131, SMARCC2 isoform 3 (UniProt Q8TAQ2) 0.161, SNX14 (UniProt Q9Y5W7) 0.035

Each target was assayed with COc1cc2ncnc(Nc3ccc(F)c(Cl)c3)c2cc1OCCCN1CCOCC1 [gefitinib] in the same assay as above.
Procedure, shortened: as §1

log2 fold change, inactive:
SMPD1 (UniProt P17405) -0.081, SNX33 (UniProt Q8WV41) 0.007, SNX2 isoform 2 (UniProt O60749) -0.016, SNIP1 (UniProt Q8TAD8) -0.015, SNAPC3 (UniProt Q92966) 0.071, SMYD3 (UniProt Q9H7B4) 0.034, SNAPC5 (UniProt O75971) 0.066, SON isoform 6 (UniProt P18583) 0.059, SNAPC1 (UniProt Q16533) -0.242, SMC1B isoform 3 (UniProt Q8NDV3) 0.044, SNAPC4 (UniProt Q5SXM2) 0.061, SNRPD2 (UniProt K7EJB5) 0.107, SNRNP35 isoform 2 (UniProt Q16560) 0.066, SP2 (UniProt Q02086) -0.082, SMARCC2 isoform 3 (UniProt Q8TAQ2) -0.097, SNX14 (UniProt Q9Y5W7) 0.064, SNRNP25 (UniProt Q9BV90) -0.036
